This note sets out measurements from patent US20110105380A1, “Protection of Nano-Scale Particles from Immune Cell Uptake” (THE TRUSTEES OF THE UNIVERSITY OF PENNSYLVANIA, priority 2009, published 2011).

Protein sequences, listed by entry. Tags and fused reporters are not part of them. Residues count along the entry.
UniProt P78324, residues 31-373: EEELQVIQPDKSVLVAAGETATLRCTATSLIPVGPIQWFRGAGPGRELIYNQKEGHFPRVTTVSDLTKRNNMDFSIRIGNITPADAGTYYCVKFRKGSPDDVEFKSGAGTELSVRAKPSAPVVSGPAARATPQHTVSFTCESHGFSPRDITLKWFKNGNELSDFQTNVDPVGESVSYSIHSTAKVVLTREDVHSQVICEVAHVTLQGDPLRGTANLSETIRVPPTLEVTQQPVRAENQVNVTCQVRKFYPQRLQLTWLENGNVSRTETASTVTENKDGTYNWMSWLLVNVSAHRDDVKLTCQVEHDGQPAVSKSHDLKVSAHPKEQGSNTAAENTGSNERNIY

No constants are given. Whether binding was seen depends on the method and setting. Some results given as binding are weak or reduced against the parent protein; the word gives no strength.

The target in test [1] is recombinant biotinylated human CD47 extracellular domain fused to CD4d3+4-biotin (human). Kind of test: flow cytometry, soluble hSIRPα on hCD47-coated beads. A general note: Flow cytometry measures light scatter and fluorescence of single cells or particles in a stream.
Test [2] has the same target. In words: flow cytometry, soluble hSIRPα on hCD47-coated beads, saturation binding.

Turning to “soluble human SIRPα extracellular domain fused to GST (SIRPα1-GST) (from UniProt P78324 31-373) (receptor)”, the binding result in test [1] and in test [2] was “binds” each time.
